Assay results taken from the supplement of paper PMC12823440, “Inhibitors supercharge kinase turnover through native proteolytic circuits” (Nature, 2025).
Counter-ions that a name gives are not always drawn. The list shows a part of the results. Hit calls seldom repeat between salt and free forms of one compound.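 Kinases, fused to nanoluciferase, were expressed in K562 cells; luminescence was measured every 4 h from 2 to 18 h as percent of control (DMSO = 100%, positive control = 0%). A time point is decreased if signal falls significantly (2 sigma). Hits were called by the authors by a rule that is not shown; the count of time points alone does not decide it.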

Amino acid sequences for entries named in this document (tags omitted). A change or cut given only in a name is not applied to a line headed by its entry.
UniProt Q05397, whole entry, looked up: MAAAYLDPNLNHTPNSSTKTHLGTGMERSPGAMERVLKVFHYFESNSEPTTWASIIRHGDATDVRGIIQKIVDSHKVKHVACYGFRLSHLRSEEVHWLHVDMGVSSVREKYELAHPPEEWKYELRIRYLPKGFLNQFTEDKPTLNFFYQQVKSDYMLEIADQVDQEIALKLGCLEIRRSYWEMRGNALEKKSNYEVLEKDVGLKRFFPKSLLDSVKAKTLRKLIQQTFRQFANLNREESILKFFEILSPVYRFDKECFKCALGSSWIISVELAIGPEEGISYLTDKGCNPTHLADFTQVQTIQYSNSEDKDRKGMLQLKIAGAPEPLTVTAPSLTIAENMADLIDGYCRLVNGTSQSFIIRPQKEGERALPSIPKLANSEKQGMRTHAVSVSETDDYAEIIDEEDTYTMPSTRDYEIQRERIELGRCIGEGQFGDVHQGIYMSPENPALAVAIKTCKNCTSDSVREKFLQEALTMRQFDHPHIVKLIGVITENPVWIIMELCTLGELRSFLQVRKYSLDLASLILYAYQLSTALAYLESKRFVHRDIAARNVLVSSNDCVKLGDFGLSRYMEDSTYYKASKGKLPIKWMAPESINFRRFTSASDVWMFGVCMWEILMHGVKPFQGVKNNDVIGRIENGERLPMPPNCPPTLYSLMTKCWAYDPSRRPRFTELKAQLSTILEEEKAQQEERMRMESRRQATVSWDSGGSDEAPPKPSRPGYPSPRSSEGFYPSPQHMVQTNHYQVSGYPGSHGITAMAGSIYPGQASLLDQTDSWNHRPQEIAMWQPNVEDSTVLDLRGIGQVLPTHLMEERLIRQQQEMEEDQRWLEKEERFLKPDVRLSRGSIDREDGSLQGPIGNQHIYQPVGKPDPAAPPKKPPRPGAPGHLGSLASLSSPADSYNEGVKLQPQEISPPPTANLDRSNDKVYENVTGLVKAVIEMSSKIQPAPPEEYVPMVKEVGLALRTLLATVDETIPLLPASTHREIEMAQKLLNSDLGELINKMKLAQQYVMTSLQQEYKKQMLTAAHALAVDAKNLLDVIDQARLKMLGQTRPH
UniProt Q14289, whole entry, looked up: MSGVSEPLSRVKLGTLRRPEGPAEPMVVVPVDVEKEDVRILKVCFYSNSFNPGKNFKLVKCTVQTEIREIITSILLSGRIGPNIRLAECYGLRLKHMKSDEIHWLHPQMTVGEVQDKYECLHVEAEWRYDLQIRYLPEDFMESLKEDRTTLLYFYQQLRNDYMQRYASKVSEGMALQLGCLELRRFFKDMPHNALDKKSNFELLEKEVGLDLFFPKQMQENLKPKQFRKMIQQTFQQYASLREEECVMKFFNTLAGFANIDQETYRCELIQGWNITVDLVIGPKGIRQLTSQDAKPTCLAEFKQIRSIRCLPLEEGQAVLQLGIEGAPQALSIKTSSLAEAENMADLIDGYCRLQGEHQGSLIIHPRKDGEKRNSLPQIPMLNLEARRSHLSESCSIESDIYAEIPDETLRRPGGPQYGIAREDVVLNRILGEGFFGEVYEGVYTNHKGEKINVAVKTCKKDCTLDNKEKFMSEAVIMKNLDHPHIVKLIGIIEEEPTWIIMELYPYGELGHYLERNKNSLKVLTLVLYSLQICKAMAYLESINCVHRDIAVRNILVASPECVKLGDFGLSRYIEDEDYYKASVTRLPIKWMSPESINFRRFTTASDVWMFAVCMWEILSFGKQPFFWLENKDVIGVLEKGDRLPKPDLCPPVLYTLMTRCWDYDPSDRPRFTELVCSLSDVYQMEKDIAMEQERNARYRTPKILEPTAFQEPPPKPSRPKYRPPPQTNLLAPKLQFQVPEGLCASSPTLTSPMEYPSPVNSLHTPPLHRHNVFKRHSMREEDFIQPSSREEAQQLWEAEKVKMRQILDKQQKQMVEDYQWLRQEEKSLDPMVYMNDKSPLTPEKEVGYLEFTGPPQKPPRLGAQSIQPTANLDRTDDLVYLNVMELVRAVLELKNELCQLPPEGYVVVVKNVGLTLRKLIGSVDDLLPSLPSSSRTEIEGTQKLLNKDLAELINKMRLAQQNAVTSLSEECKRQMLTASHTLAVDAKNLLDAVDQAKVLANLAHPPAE
UniProt P07949, whole entry, looked up: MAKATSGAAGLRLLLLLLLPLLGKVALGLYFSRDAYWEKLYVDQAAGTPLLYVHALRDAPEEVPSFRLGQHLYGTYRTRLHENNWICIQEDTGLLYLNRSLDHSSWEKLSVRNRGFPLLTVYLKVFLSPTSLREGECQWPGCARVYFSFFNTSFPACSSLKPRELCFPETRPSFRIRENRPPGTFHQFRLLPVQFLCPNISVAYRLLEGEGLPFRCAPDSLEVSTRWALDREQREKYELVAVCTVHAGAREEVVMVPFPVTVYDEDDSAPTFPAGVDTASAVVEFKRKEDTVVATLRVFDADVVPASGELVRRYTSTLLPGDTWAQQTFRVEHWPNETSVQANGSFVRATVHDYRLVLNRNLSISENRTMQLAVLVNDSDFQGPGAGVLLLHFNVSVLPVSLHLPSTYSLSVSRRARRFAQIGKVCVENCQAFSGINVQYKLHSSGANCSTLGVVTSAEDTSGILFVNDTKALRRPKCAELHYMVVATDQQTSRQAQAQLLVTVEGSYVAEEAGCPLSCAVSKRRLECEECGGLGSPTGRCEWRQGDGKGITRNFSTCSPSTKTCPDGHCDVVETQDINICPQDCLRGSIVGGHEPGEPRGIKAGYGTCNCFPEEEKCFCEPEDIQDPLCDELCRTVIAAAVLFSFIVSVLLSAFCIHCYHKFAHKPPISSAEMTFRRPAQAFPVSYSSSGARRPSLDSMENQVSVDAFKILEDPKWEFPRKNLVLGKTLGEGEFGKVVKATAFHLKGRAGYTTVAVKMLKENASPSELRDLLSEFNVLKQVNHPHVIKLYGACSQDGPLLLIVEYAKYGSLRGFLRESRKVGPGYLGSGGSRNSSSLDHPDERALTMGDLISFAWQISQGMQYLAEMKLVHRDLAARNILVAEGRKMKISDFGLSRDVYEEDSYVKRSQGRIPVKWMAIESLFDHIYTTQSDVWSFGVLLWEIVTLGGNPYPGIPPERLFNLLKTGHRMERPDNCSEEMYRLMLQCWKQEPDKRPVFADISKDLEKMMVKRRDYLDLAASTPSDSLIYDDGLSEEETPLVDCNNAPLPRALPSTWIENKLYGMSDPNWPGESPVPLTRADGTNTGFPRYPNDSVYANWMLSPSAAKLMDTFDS
UniProt P07949, whole entry M918T, looked up: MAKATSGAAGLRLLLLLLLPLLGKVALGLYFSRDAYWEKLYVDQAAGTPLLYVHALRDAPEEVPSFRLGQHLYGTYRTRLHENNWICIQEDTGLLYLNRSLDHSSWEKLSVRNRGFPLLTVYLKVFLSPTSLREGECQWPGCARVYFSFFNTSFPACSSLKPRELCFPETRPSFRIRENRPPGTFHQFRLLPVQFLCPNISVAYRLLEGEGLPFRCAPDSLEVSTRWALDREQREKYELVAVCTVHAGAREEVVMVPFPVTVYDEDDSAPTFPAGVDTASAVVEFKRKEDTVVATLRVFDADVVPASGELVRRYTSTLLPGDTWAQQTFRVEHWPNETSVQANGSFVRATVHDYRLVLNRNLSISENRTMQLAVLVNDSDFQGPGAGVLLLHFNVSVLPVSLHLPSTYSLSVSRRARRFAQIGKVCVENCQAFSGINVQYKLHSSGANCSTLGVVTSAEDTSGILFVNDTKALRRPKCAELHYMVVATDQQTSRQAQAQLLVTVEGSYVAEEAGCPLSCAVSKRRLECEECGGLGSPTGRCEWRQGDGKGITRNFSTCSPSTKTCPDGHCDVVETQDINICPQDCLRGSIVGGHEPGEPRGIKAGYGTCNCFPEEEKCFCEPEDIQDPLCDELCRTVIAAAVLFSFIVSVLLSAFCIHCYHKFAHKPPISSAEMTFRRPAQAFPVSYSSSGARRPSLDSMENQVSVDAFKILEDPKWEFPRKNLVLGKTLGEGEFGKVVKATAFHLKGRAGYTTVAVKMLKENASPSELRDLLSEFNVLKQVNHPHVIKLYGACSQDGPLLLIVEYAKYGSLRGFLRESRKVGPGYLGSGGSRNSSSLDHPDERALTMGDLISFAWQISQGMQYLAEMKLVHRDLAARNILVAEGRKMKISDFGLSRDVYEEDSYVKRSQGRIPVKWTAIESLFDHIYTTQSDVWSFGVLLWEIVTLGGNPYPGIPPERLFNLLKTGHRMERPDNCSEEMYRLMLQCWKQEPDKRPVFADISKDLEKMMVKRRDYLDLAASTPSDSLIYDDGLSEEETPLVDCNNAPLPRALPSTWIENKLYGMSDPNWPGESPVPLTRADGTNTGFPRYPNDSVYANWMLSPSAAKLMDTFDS
UniProt Q9BRS2: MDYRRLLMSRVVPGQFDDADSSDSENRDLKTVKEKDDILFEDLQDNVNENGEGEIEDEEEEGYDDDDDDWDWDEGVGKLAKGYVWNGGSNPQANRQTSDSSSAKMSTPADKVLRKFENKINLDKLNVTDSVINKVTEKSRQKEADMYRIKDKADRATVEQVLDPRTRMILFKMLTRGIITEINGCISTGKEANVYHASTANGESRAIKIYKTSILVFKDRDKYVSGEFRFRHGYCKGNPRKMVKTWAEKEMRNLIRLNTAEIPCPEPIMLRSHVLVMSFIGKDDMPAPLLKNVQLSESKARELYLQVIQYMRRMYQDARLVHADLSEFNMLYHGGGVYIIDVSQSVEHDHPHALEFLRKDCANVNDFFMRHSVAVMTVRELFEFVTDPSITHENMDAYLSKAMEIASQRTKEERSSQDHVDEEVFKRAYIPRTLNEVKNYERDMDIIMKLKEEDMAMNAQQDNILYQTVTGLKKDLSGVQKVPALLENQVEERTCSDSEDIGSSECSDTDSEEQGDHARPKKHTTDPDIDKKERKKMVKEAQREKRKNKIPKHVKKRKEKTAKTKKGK
UniProt Q13546: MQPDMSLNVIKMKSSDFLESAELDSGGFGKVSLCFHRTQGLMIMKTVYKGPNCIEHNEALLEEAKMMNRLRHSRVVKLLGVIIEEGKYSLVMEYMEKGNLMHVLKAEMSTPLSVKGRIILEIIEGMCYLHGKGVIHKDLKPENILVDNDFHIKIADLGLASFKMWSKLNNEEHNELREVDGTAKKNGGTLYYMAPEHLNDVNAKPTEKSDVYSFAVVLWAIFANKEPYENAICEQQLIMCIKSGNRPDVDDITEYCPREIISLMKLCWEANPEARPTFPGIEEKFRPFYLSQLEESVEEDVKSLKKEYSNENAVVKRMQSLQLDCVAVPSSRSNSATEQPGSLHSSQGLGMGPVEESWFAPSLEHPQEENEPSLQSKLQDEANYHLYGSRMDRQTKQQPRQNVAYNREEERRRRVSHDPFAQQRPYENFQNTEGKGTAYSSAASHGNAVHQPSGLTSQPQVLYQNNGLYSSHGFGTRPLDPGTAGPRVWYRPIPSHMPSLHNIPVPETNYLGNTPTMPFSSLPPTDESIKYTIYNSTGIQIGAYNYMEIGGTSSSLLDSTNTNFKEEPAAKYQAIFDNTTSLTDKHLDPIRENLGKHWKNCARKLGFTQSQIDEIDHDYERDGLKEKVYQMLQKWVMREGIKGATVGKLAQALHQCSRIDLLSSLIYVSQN

Key:
Assay in all cases: number of time points (of 5) at which kinase-Nluc abundance scored as decreased, DMSO-normalised (count); higher = more persistent destabilization
Settings in all cases: K562; 2-18 h
PRKCA = PRKCA (UniProt P17252)
PTK2 = PTK2 (UniProt Q05397)
PTK2B = PTK2B (UniProt Q14289)
RAF1 = RAF1 (UniProt P04049)
[1] = target: RAF1_S257L (clone: RAF1_mut) (UniProt P04049)
RET = RET (UniProt P07949)
[2] = target: RET_M918T (clone: RET_mut) (UniProt P07949)
RIOK1 = RIOK1 (UniProt Q9BRS2)
RIPK1 = RIPK1 (UniProt Q13546)
RIPK2 = RIPK2 (UniProt O43353)

Measured: number of time points

Cn1cc(-c2ccc3c(c2)CCN3C(=O)Cc2cccc(C(F)(F)F)c2)c2c(N)ncnc21 (2.5 µM)
0: all assays above

CNC(=O)c1c(F)cccc1Nc1nc(Nc2cc3c(cc2OC)CCN3C(=O)CN(C)C)nc2[nH]ccc12 (10 µM)
1: PTK2
0: all other assays above

C=C(CC[C@@H](C(=O)O)[C@H]1[C@H](O)C[C@@]2(C)C3=C(CC[C@]12C)[C@@]1(C)CC[C@H](OC(C)=O)C(C)(C)[C@@H]1CC3)C(C)C [Pachymic acid] (10 µM)
0: all assays above

Cc1cc(O)c2c(c1)C(=O)c1cc(O)cc(O)c1C2=O [Emodin] (10 µM)
0: all assays above

COc1cc2c(cc1OC)CN(S(=O)(=O)c1ccc(OC)c(N3CCN(C(=O)c4ccc(F)cc4C(F)(F)F)CC3)c1)CC2 (10 µM)
0: all assays above

CS(=O)(=O)Nc1cc(-c2ccc3ncnc(Nc4ccc(F)c(Cl)c4)c3c2)cnc1Cl (2.5 µM)
1: PTK2
3: RAF1
0: all other assays above

CN1CCC(c2cc(-c3ccncc3)c(-c3ccc(F)cc3)[nH]2)CC1 (10 µM)
0: all assays above

CNC(=O)c1ccc(C)c(-n2c(C)cc(OCc3ccc(F)cc3F)c(Br)c2=O)c1 (10 µM)
0: all assays above

O=c1[nH]c(=O)n([C@@H]2O[C@H](CO)[C@@H](O)[C@@H]2O)cc1/C=C/Br [Sorivudine] (10 µM)
0: all assays above

Nc1ccc(-c2cnc(N)c(-c3ccc(Cl)cc3)c2)cn1 (10 µM)
0: all assays above

FC(F)(c1ccc2ncccc2c1)c1nnc2ccc(-c3ccncc3)nn12 (10 µM)
0: all assays above

CCN1CCN(Cc2ccc(Nc3ncc(F)c(-c4cc(F)c5nc(C)n(C(C)C)c5c4)n3)nc2)CC1 [Abemaciclib] (2 µM)
0: all assays above

Cc1ccccc1-c1c2nccc(-c3ccc(F)cc3F)c2cc[n+]1[O-] (10 µM)
0: all assays above

C=CC(=O)Nc1cccc(Nc2nc(Nc3ccc(NC4CN(CCF)C4)cc3OC)ncc2C(F)(F)F)c1 (2.5 µM)
0: all assays above

CN(C)CCCOc1ccc(-c2ccc3ncc4c(c3c2)n(C2CCOCC2)c(=O)n4C)cn1 (2 µM)
0: all assays above

NCCNS(=O)(=O)c1cccc2c(Cl)cccc12 [A-3 (hydrochloride)] (10 µM)
0: all assays above

Cc1cc(=O)oc2c(C=O)c(O)ccc12 (10 µM)
0: all assays above

N#Cc1c(C2CCNCC2)cc(-c2c(O)cccc2OCC2CC2)nc1N [ACHP (Hydrochloride)] (10 µM)
0: all assays above

CNC(=O)c1cc(COc2nnc(Nc3ccc(Cl)cc3)c3ccoc23)ccn1 [Telatinib] (10 µM)
5: PTK2
0: all other assays above

O=C(N/N=C/c1coc2ccccc2c1=O)c1cccnc1 (10 µM)
0: all assays above

O=C(NOCC(O)CO)c1cc(Br)c(F)c(F)c1Nc1ccc(I)cc1F (stereo not given) (2.5 µM)
0: all assays above

CCNc1nc(Nc2cc(F)c(C(=O)N3CCOCC3)cc2OC)ncc1C(F)(F)F [GNE-7915 (tosylate)] (10 µM)
0: all assays above

NC(=O)c1nc(Nc2ccccc2)sc1NC(=O)C1CCCCC1 (10 µM)
0: all assays above

COc1cc(Nc2ncc(F)c(Nc3ccc4c(n3)N(COP(=O)(O)O)C(=O)C(C)(C)O4)n2)cc(OC)c1OC [Fostamatinib (disodium hexahydrate)] (10 µM)
0: all assays above

OCCn1cc(-c2ccc3c(c2)CC/C3=N\O)c(-c2ccncc2)n1 (10 µM)
0: all assays above

Cc1cc2ncc(-c3ccc(O)c(O)c3)nc2cc1C [Tyrphostin AG1433] (10 µM)
4: RIPK2
0: all other assays above

O=C1N[C@@H](Cc2c[nH]c3ccccc23)C(=O)N2CCC[C@@H]12 [Brevianamide F] (10 µM)
0: all assays above

Sorted by SMILES length (descending): 9 of the compounds above
COc1cc(Nc2ncc(F)c(Nc3ccc4c(n3)N(COP(=O)(O)O)C(=O)C(C)(C)O4)n2)cc(OC)c1OC [Fostamatinib (disodium hexahydrate)] (10 µM)
0: all assays above

CCNc1nc(Nc2cc(F)c(C(=O)N3CCOCC3)cc2OC)ncc1C(F)(F)F [GNE-7915 (tosylate)] (10 µM)
0: all assays above

O=C1N[C@@H](Cc2c[nH]c3ccccc23)C(=O)N2CCC[C@@H]12 [Brevianamide F] (10 µM)
0: all assays above

CNC(=O)c1cc(COc2nnc(Nc3ccc(Cl)cc3)c3ccoc23)ccn1 [Telatinib] (10 µM)
5: PTK2
0: all other assays above

OCCn1cc(-c2ccc3c(c2)CC/C3=N\O)c(-c2ccncc2)n1 (10 µM)
0: all assays above

N#Cc1c(C2CCNCC2)cc(-c2c(O)cccc2OCC2CC2)nc1N [ACHP (Hydrochloride)] (10 µM)
0: all assays above

O=C(N/N=C/c1coc2ccccc2c1=O)c1cccnc1 (10 µM)
0: all assays above

Cc1cc2ncc(-c3ccc(O)c(O)c3)nc2cc1C [Tyrphostin AG1433] (10 µM)
4: RIPK2
0: all other assays above

Cc1cc(=O)oc2c(C=O)c(O)ccc12 (10 µM)
0: all assays above

Additional structures:

S=C(SSC(=S)N1CCOCC1)N1CCOCC1 (10 µM)
4: RIPK2
1: PTK2
2: [1]
3: RAF1 | RIPK1
0: all other assays above

COc1ccc(Cl)c(Nc2nc3ccccc3nc2NS(=O)(=O)c2cccc(NC(=O)C(C)(C)N)c2)c1 [Pilaralisib] (10 µM)
0: all assays above

COc1cc2nccc(Oc3ccc(NC(=O)NC4CC4)c(Cl)c3)c2cc1C(N)=O [Lenvatinib (mesylate)] (10 µM)
1: PTK2
2: RIOK1 | RIPK1
3: RIPK2
4: [1]
0: all other assays above

O=C1NC(=O)/C(=C\c2cccc(C(F)(F)F)c2)S1 (2.5 µM)
0: all assays above

NS(=O)(=O)c1ccc(-n2nc(C(F)(F)F)cc2-c2ccc(Cl)cc2)cc1 (10 µM)
0: all assays above

CCOc1ccc2cc(-c3nn(CC4CCN(C)CC4)c4ncnc(N)c34)ccc2n1 (10 µM)
0: all assays above

C[C@]1(O)CCN(c2nc(N3C[C@H](O)[C@@H](O)C3)cc(C(F)(F)F)c2C#N)C1 (10 µM)
0: all assays above

C[C@H](c1ccnc(Nc2nc3ccc(-c4cc(N(C)C)ncn4)cc3[nH]2)c1)N1CCN(C(=O)CC(F)(F)F)CC1 (2.5 µM)
0: all assays above

CCCCCCCCCCCCC/C=C/[C@@H](O)[C@@H](N)CO [D-erythro-Sphingosine] (2.5 µM)
0: all assays above

Cn1cnc(Cn2ccc3ccc(CNCc4[nH]c5ccccc5c4[C@H]4NC(=O)c5ccc(O)cc54)cc32)c1 (10 µM)
0: all assays above
